US20220339156A1, “COMPOSITIONS AND METHODS FOR TREATMENT OF DISORDERS ASSOCIATED WITH CLEC16A DYSFUNCTION OR LOSS” (THE CHILDREN'S HOSPITAL OF PHILADELPHIA, priority 2019, published 2022)
For at least one compound, name, drawing or mass did not settle the structure.

Experiments:
[1] = system: JAK; details: as listed, no test described; cited from earlier work
[2] = system: UBC-Cre-Clec16aloxP KO mice; assay: Treatment of inducible Clec16a KO mice: fat/weight loss, lipodystrophic phenotype, survival

| Structure (SMILES) | JAK selectivity [1] | lipodystrophic phenotype [2] | fat and weight loss ([2]; treated vs untreated KO) |
| --- | --- | --- | --- |
| CC[C@@H]1CN(C(=O)NCC(F)(F)F)C[C@@H]1c1cnc2cnc3[nH]ccc3n12 [Upadacitinib] | JAK1 |  |  |
| CO[C@H]1C[C@@H]2CC[C@@H](C)[C@@](O)(O2)C(=O)C(=O)N2CCCC[C@H]2C(=O)O[C@H]([C@H](C)C[C@@H]2CC[C@@H](O)[C@H](OC)C2)CC(=O)[C@H](C)/C=C(\C)[C@@H](O)[C@@H](OC)C(=O)[C@H](C)C[C@H](C)/C=C/C=C/C=C/1C [rapamycin] |  | attenuates | significantly reduced |
